{"source": "patent US20240139154A1", "about": "“Methods of Reducing Risk of Prostate Cancer Progression” (Astellas Pharma Inc., priority 2021, published 2024)", "experiment": "ENACT study: health-related quality of life, patient-reported outcomes (BFI, EPIC, SF-12, MAX-PC)", "assay_type": "in vivo, human", "note": "The amount applied is not stated for every result.", "data": [{"smiles": "CNC(=O)c1ccc(N2C(=S)N(c3ccc(C#N)c(C(F)(F)F)c3)C(=O)C2(C)C)cc1F", "note": "[enzalutamide, Enzalutamide]", "values": [{"measurement": "EPIC sexual function score", "setting": "6 months", "result": "33.4±22.2"}, {"measurement": "BFI, mean", "setting": "Month 12", "result": 2.5}, {"measurement": "EPIC hormonal, mean", "setting": "Month 12", "result": 57.7}, {"measurement": "EPIC sexual, mean", "setting": "Month 12", "result": 30.2}, {"measurement": "EPIC urinary, mean", "setting": "Month 12", "result": 85.2}, {"measurement": "MAX-PC, mean", "setting": "Month 12", "result": 16.5}, {"measurement": "SF-12 mental, mean", "setting": "Month 12", "result": 52.0}, {"measurement": "SF-12 physical, mean", "setting": "Month 12", "result": 49.4}, {"measurement": "BFI, mean", "setting": "Month 24", "result": 1.6}, {"measurement": "EPIC hormonal, mean", "setting": "Month 24", "result": 57.9}, {"measurement": "EPIC sexual, mean", "setting": "Month 24", "result": 47.7}, {"measurement": "EPIC urinary, mean", "setting": "Month 24", "result": 88.3}, {"measurement": "MAX-PC, mean", "setting": "Month 24", "result": 16.3}, {"measurement": "SF-12 mental, mean", "setting": "Month 24", "result": 54.4}, {"measurement": "SF-12 physical, mean", "setting": "Month 24", "result": 51.0}]}]}
